Two substances from publication PMC5524322, “Species A rotavirus NSP3 acquires its translation inhibitory function prior to stable dimer formation” (PLoS ONE, 2017) can be followed below.

Results are given in words; binding and its absence hold for the method and conditions named. Some binding calls cover weakened binding; strength is not graded here.

In test [1] the target is NSP3 K171E of rotavirus strain RRV (simian rotavirus A strain RRV) (UniProt Q8UZL8). The experiment in a line: non-dissociating Western blot (WB-ND); lysates of vaccinia-infected BSC-1 cells (18 hpi) mixed with 2x non-dissociating sample buffer (62.5 mM Tris-HCl pH 6.8, 0.8% SDS, 20% glycerol), 30 min on ice, not boiled; 12% SDS-PAGE in a cold room; blot with anti-NSP3 rat serum; stable dimer band (68 kDa) told apart from monomer/dimerization intermediate band (34 kDa); cells with MG132 or DMSO, in one experiment with cycloheximide.

Test [2] deals with NSP3 Y192A of rotavirus strain RRV (simian rotavirus A strain RRV) (UniProt Q8UZL8). Described as above.

“NSP3 K171E of rotavirus strain RRV (from UniProt Q8UZL8 4-313)”: the binding entry in test [1] was “binds”.

As to “NSP3 Y192A of rotavirus strain RRV (from UniProt Q8UZL8 4-313)”, the binding entry in test [2] was “binds”.
